Results from the supplement of paper PMC10849652.
The list shows a part of the results.

Sequences of proteins named here, by UniProt entry; tags and fusion partners are left off. A change or cut given only in a name is not applied to a line headed by its entry.
UniProt Q9BRQ0: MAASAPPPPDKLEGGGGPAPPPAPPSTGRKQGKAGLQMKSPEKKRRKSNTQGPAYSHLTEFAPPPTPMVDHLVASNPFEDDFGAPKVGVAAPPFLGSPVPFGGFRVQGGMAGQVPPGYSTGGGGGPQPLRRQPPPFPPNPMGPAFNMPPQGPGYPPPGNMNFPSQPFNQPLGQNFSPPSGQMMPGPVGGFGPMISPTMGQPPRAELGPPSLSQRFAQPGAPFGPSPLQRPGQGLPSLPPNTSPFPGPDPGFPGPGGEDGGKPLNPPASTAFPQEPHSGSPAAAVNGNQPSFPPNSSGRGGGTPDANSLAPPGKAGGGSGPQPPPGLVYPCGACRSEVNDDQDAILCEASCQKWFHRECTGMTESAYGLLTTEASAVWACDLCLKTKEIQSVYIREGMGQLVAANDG
UniProt Q92932: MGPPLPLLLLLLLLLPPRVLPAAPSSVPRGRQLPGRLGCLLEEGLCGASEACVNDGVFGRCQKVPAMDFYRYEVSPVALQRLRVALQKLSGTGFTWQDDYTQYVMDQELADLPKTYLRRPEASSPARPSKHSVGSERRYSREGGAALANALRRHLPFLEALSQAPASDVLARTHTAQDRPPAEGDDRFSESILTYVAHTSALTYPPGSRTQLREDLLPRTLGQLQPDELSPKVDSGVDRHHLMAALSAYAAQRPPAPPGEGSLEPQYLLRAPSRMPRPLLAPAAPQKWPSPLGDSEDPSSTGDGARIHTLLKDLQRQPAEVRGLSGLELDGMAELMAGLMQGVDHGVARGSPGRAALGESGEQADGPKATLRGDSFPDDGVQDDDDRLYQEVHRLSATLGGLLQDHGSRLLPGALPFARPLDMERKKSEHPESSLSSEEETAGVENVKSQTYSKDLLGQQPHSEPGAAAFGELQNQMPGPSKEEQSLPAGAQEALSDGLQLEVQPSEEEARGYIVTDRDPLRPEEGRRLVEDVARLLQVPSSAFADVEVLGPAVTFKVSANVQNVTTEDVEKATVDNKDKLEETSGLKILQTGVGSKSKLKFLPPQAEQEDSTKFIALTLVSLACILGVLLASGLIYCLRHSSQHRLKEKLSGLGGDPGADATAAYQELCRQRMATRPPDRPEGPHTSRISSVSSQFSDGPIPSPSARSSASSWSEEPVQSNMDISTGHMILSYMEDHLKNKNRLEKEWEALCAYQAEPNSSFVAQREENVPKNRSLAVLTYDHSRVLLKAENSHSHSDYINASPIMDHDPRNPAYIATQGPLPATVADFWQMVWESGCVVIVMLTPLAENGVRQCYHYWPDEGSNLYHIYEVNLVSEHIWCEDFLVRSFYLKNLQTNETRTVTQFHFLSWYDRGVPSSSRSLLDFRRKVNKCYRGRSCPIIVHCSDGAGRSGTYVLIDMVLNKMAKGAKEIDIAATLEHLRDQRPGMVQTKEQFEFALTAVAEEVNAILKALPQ
UniProt P28074: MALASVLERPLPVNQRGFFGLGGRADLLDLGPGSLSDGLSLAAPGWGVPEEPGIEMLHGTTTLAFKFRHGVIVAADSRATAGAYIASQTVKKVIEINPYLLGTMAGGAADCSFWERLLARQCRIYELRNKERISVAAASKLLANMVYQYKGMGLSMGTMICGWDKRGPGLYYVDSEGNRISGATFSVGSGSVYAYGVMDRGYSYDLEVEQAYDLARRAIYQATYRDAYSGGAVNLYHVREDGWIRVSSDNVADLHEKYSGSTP
UniProt Q9NYI0: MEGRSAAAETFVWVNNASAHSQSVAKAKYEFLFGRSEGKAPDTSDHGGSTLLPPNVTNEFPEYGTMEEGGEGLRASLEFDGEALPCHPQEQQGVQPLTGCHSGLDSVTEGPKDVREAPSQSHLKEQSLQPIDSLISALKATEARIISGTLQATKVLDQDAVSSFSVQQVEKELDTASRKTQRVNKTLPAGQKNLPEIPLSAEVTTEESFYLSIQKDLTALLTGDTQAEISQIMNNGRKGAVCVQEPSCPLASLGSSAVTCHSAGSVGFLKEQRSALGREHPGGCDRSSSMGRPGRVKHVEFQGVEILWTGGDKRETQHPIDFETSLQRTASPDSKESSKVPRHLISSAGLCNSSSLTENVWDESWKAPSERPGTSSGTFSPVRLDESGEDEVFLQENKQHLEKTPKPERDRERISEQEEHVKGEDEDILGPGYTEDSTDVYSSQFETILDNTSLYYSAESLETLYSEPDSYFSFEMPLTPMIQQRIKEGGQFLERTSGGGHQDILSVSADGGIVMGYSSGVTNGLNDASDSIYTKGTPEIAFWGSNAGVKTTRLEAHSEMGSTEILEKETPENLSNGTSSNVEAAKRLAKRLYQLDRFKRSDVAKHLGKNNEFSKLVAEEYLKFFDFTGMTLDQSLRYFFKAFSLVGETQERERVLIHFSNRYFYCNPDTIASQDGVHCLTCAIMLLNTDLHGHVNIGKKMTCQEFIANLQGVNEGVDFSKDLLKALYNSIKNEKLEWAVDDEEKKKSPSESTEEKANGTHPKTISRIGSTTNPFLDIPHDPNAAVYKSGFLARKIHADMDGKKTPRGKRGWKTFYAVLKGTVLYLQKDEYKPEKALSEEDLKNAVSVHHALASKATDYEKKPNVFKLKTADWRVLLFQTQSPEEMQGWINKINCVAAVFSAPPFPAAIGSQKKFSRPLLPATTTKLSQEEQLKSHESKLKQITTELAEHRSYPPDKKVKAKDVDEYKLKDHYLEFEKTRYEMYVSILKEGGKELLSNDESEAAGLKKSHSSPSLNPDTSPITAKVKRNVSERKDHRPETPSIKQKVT
UniProt O75365, whole entry, looked up: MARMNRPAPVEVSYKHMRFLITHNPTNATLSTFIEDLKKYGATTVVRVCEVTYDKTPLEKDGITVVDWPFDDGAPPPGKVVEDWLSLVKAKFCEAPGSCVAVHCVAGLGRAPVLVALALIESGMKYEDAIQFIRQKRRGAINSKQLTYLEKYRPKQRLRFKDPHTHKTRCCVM
UniProt P35236: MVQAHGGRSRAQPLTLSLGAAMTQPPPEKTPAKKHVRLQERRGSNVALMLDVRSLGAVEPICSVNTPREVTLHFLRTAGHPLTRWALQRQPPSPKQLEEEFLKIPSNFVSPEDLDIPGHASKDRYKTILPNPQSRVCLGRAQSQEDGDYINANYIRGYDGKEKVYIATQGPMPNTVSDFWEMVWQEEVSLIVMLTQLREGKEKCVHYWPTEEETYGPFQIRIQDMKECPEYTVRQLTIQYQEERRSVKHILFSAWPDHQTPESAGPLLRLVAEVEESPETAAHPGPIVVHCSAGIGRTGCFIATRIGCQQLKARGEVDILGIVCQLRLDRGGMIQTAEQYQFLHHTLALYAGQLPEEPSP
UniProt Q13332: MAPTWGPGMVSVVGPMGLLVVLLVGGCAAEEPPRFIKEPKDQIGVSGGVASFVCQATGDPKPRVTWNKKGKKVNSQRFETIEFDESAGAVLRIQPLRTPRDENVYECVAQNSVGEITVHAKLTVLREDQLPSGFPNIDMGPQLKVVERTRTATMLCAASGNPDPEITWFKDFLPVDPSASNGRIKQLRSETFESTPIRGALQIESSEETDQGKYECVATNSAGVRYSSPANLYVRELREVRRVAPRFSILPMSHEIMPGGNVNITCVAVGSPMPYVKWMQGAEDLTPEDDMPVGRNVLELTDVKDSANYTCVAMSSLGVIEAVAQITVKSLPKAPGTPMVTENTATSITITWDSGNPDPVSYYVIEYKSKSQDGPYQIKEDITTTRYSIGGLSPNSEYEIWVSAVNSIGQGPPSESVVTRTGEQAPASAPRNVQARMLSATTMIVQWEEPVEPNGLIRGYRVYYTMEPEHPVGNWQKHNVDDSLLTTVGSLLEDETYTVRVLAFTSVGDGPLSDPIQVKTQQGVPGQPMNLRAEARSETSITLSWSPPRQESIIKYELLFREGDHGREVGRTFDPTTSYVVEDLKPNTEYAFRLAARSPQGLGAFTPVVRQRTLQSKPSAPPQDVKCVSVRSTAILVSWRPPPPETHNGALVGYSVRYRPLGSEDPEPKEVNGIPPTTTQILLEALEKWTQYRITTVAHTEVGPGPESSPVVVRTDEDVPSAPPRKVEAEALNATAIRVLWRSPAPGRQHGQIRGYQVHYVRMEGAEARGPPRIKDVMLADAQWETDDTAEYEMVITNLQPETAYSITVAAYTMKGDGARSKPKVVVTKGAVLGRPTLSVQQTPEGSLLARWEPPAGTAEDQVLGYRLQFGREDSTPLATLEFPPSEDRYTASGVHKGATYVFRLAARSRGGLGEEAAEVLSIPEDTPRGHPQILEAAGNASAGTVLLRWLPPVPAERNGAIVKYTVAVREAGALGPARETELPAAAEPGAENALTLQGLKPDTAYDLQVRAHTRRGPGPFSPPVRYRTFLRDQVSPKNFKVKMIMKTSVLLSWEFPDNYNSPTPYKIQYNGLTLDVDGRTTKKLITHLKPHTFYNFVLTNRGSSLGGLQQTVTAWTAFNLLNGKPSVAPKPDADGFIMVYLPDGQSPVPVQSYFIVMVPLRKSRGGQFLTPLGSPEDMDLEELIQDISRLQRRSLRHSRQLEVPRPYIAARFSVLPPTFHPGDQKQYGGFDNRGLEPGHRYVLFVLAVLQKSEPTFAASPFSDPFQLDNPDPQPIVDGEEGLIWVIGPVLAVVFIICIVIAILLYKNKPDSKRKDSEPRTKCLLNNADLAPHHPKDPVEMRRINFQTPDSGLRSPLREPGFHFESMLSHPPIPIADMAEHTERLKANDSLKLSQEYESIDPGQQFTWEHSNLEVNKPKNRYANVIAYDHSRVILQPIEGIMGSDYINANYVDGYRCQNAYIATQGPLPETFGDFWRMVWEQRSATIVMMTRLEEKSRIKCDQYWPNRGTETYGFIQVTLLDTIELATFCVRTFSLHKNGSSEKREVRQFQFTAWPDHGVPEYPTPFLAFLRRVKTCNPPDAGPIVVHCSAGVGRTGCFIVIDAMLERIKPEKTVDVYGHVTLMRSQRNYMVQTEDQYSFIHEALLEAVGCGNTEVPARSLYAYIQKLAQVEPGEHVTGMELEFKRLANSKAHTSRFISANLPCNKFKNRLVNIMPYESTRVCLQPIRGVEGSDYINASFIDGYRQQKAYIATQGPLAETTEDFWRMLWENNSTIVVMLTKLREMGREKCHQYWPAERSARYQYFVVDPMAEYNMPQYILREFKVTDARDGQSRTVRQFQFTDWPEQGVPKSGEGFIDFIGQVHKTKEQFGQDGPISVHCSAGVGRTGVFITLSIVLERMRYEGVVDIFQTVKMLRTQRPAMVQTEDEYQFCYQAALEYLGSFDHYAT
UniProt Q96BW5: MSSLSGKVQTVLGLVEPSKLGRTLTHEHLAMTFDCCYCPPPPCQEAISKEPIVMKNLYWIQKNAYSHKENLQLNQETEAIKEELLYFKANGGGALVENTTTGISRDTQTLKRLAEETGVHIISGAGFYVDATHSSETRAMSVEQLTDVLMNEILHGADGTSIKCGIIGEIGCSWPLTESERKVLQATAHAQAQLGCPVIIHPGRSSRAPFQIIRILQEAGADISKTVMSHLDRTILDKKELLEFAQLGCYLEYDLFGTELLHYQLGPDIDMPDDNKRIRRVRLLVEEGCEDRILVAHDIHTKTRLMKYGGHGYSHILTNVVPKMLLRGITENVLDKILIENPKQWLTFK
UniProt Q9NRG1: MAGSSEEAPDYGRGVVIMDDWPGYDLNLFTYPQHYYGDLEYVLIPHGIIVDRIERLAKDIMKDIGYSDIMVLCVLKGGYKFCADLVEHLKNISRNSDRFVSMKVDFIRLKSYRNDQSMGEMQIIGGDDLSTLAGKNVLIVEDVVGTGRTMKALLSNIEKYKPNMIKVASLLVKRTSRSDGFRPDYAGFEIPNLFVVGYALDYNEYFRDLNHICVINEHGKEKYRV
UniProt Q9BQI7: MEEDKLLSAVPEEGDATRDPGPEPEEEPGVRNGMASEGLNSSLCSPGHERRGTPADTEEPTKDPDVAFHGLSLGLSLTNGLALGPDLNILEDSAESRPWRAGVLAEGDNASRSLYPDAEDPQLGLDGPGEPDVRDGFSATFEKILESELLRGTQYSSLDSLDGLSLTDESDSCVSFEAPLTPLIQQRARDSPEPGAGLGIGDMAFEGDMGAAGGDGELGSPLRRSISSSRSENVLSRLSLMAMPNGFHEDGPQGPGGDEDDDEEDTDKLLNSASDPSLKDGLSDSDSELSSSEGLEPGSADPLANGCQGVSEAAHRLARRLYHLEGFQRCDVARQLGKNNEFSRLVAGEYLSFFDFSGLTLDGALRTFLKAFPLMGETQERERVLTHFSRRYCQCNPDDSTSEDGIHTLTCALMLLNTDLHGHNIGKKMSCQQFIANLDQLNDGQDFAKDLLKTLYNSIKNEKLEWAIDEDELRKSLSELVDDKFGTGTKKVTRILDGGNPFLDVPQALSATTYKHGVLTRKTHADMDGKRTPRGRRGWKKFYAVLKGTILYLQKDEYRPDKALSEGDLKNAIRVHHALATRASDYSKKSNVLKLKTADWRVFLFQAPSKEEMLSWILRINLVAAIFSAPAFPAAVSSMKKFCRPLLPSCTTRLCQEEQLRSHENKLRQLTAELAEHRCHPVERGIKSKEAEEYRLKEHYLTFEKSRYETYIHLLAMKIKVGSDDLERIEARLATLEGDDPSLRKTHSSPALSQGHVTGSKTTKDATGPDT

Tests used:
Assay in all cases: log2 fold change, soluble protein after heating vs DMSO (PISA); higher = thermal stabilisation; K562 cells, 10 uM, 30 min; active = over 0.2 and 3.5 SD of the protein, either way, in both replicates (recomputed)
[1] = compound: C1=CC=C(C=C1)[C@H](COC2=CC3=C(C=C2)NC(=O)N3)NC(=O)C4=CC=CN(C4=O)CC5=CC(=C(C=C5)F)F
Outline: (§1)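 Quantification of soluble protein used TMTpro 16plex LC-MS/MS, with channel sums equalised. Samples were the supernatant after 21,000xg for 90 min of pooled aliquots from K562 cells (2×10^6 cells/mL) treated with 10 μM compound for 30 min, heated for 3 min over 48°C-58°C, and extracted in PBS with 0.5% NP-40 at 4°C. Values, from duplicates, describe thermal stability against control samples on a log2 fold-change scale.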

[2] = compound: CC1=C(SC2=C1C(=N[C@H](C3=NN=C(N32)C)CC(=O)N)C4=CC=C(C=C4)Cl)C
Outline: as §1

[3] = compound: Cc1sc2c(c1C)C(c1ccc(Cl)cc1)=N[C@@H](CC(=O)OC(C)(C)C)c1nnc(C)n1-2
Outline: as §1

[4] = compound: c1ccc([C@@H]2C[C@H]2NC2CCNCC2)cc1
Outline: as §1

[5] = compound: CC1=C2C(=CC=C1)N=C(N(C2=O)C3=CC=CC=C3C)CN4C=NC5=C(N=CN=C54)N
Outline: as §1

Row | Target | log2 fold change [1] | log2 fold change [2] | log2 fold change [3] | log2 fold change [4] | log2 fold change [5]
1 | PYCR1 isoform 3 (UniProt P32322) | inactive: 0.031 | inactive: 0.025 | inactive: -0.002 |  | 
2 | PSMB8 (UniProt P28062) |  | inactive: -0.044 |  | inactive: 0.062 | 
3 | PYGO2 (UniProt Q9BRQ0) | inactive: 0.005 |  |  |  | inactive: -0.21
4 | PUM2 isoform 3 (UniProt Q8TB72) |  | inactive: 0.086 |  | inactive: -0.107 | 
5 | PTPRN2 isoform 3 (UniProt Q92932) | inactive: -0.117 | inactive: -0.164 |  | inactive: -0.183 | 
6 | PSMD4 (UniProt Q5VWC4) | inactive: -0.088 | inactive: -0.079 |  | inactive: 0.056 | inactive: -0.016
7 | PSMB9 (UniProt P28065) | inactive: 0.182 | inactive: 0.138 |  | inactive: -0.203 | inactive: 0.179
8 | PSMB5 isoform 3 (UniProt P28074) | inactive: 0.063 |  | inactive: 0.011 |  | inactive: 0.209
9 | R3HCC1L (UniProt Q7Z5L2) |  | inactive: -0.107 | inactive: 0.287 | inactive: 0.114 | inactive: 0.002
10 | PSMB2, A0A087WVV1 | inactive: -0.104 |  |  |  | inactive: 0.054
11 | PUM1 (UniProt Q14671) |  | inactive: 0.116 | inactive: 0.059 | inactive: -0.094 | 
12 | PSD3 (UniProt Q9NYI0) |  | inactive: 0.045 |  | inactive: -0.028 | inactive: 0.052
13 | PTP4A3 (UniProt O75365) | inactive: 0.037 |  |  |  | inactive: 0.391
14 | PSMA7 isoform 2 (UniProt O14818) | inactive: 0.033 | inactive: -0.087 | inactive: 0.186 | inactive: 0.06 | inactive: 0.2
15 | PRUNE2 isoform 3 (UniProt Q8WUY3) |  |  |  |  | inactive: -0.113
16 | PSMB10 (UniProt P40306) |  |  |  |  | inactive: 0.016
17 | PSMD8 (UniProt K7ERW6) |  |  | inactive: 0.03 |  | inactive: 0.2

Full records from above.
PSD3 (UniProt Q9NYI0) is entered as log2 fold change [2]: inactive: 0.045; log2 fold change [4]: inactive: -0.028; log2 fold change [5]: inactive: 0.052
PSMB5 isoform 3 (UniProt P28074) is entered as log2 fold change [1]: inactive: 0.063; log2 fold change [3]: inactive: 0.011; log2 fold change [5]: inactive: 0.209

More results follow.

Row | Target | log2 fold change [1] | log2 fold change [2] | log2 fold change [3] | log2 fold change [4] | log2 fold change [5]
18 | PSMA3 (UniProt H0YJ03) |  | inactive: 0.193 | inactive: 0.048 | inactive: 0.034 | inactive: 0.119
19 | PTPN7 isoform 3 (UniProt P35236) |  | inactive: -0.077 |  | inactive: -0.137 | inactive: 0.029
20 | PSMC1 (UniProt G3V4X1) |  | inactive: -0.021 |  | inactive: 0.112 | 
21 | PSIP1 (UniProt V9GYT7) |  | inactive: -0.045 | inactive: 0.121 | inactive: 0.146 | 
22 | PSMD8 (UniProt K7EK21) |  | inactive: -0.11 |  | inactive: 0.188 | 
23 | PUSL1 (UniProt Q8N0Z8) |  | inactive: -0.294 | inactive: 0.186 | inactive: 0.178 | 
24 | PTPRS (UniProt Q13332) | inactive: -0.046 |  |  |  | inactive: -0.067
25 | PSMC3 (UniProt E9PLG2) | inactive: 0.03 |  | inactive: 0.252 |  | inactive: -0.056
26 | PYCR1 (UniProt J3QKT4) | inactive: 0.219 |  | inactive: -0.072 |  | inactive: -0.073
27 | PTER (UniProt Q96BW5) | inactive: -0.001 | inactive: 0.033 | inactive: 0.003 | inactive: -0.011 | inactive: 0.006
28 | PSD4 (UniProt Q8NDX1) |  | inactive: -0.072 | inactive: 0.034 | inactive: -0.02 | inactive: 0.013
29 | PTRH1 (UniProt Q86Y79) |  | inactive: -0.078 |  | inactive: -0.004 | 
30 | PSMA3 (UniProt G3V4X5) | inactive: -0.073 |  |  |  | inactive: 0.147
31 | PRTFDC1 (UniProt Q9NRG1) | inactive: 0.041 | inactive: 0.02 | inactive: -0.027 | inactive: -0.003 | inactive: 0.004
32 | PSD2 (UniProt Q9BQI7) |  |  |  |  | inactive: 0.366
33 | R3HCC1 (UniProt Q9Y3T6) |  | inactive: -0.001 | inactive: 0.017 | inactive: 0.248 | inactive: -0.115
